This data set can be described thus: in vivo. As to conditions: mouse, mice. From the text:
Experiment 2: Acute toxicity in mice

Here are results for one compound from patent publication US4021434A, “Sodium β-[2,6-dimethyl-3,5-bis(ethoxycarbonyl)-4-(3-nitrophenyl)-1,4-dihyd ropyridine-1-yl]ethyl sulfate” (Yamanouchi Pharmaceutical Co., Ltd., priority 1972, dated 1977).

What is called LD50 is the dose expected to kill half of the subjects tested. The low end stands for greater toxicity, the high end for lower toxicity.

Consider `COC(=O)C1=C(C)NC(C)=C(C(=O)OC)C1c1ccccc1[N+](=O)[O-]` [C], for which the LD50 came to 400 mg/kg (ip) and 2000 mg/kg (po).
